# From patent publication US20220380310A1, “P2X7R ANTAGONISTS” (priority 2019, published 2022)
# The chains behind the UniProt entries cited, without tags or fusion partners.
# UniProt P51575, whole entry: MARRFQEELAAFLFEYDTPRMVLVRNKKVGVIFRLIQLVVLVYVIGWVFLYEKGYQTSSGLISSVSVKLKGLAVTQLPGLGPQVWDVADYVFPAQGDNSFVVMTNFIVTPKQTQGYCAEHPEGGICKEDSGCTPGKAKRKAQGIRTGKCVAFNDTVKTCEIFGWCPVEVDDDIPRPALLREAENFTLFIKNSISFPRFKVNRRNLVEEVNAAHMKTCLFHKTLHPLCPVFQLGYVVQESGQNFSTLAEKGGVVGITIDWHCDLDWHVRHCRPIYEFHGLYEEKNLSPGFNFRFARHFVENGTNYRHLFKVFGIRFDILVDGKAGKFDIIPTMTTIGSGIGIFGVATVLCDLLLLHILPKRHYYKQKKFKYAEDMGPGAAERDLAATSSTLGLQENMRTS
# UniProt Q9UBL9, whole entry: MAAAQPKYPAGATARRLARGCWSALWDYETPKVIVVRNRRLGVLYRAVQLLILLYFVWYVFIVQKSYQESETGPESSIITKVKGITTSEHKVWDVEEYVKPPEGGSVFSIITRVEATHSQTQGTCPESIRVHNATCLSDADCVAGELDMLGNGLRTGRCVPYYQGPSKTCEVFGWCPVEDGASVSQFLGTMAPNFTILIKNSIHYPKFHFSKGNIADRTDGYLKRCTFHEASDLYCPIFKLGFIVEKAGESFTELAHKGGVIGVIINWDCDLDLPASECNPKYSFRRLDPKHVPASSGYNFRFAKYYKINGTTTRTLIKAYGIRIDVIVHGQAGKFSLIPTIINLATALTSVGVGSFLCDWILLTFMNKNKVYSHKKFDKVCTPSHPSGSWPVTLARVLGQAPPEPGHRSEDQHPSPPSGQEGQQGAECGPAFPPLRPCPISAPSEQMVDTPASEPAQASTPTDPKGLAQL
# UniProt Q99572, whole entry: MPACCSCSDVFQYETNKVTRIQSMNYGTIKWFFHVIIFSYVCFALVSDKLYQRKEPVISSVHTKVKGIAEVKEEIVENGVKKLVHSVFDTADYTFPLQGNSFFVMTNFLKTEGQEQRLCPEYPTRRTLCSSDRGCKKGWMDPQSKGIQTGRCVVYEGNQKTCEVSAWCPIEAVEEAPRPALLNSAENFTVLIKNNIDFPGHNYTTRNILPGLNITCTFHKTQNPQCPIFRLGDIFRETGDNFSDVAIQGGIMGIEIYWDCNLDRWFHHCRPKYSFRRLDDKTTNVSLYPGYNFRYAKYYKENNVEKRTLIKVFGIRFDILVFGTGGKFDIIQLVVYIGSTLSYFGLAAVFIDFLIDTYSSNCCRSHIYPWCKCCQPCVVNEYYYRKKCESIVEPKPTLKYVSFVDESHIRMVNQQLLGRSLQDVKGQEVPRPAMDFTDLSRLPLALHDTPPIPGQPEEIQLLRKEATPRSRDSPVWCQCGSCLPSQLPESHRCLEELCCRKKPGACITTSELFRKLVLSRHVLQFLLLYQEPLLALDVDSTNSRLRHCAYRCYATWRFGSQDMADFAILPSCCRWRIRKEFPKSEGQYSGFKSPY
# UniProt Q99571, whole entry: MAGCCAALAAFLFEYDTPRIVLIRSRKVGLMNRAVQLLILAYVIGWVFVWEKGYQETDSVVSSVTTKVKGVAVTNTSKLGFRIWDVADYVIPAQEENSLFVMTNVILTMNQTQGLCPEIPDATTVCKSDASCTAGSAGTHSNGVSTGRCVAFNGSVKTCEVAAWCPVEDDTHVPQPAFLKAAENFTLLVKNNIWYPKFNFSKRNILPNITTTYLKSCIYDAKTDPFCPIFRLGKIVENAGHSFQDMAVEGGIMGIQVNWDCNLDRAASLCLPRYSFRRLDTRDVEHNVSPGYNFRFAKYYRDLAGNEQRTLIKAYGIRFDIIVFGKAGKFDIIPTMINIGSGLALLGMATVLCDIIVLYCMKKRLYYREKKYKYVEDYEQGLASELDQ
# The structures given here were assigned with low confidence; some may be wrong.
# Experiments:
# [1] = target: Human P2X1 receptor (P2X1R) (Homo sapiens, UniProt P51575); assay: Receptor-mediated calcium entrance assay (Calcium Assay), P2X1R transfected HEK-293 cells; conditions: ATP 20 μM stimulus
# From the text: (§1) Human P2X1 receptor (P2X1R) is a member of P2X family. […] Thus, the calcium assay was used. In the calcium assay, P2X receptor activation leads to opening of ion channels, which increases intracellular calcium concentration. The increased intracellular calcium concentration can be detected by a calcium indicator dye such as Fluo-4 or Fluo-8. Molecular Probes™ Fluo-4, AM (Cat. No. F14201 from Fisher Scientific) was used in the assay. The procedures were similar as described in the Yo-Pro-1 assay until day 4. The construct of P2X1R for transient transfection to HEK-293 cells was the courtesy from Dr. Richard J. Evans laboratory (J. Biol. Chem. 279:9043-9055). […] At this point, the base level of fluorescence was obtained through the microplate reading—the base microplate reading for this assay. […] Activation of P2X1R opened the channel to allow influx of calcium, which was represented by fluorescence increases that were measured by the microplate device with excitation at 475 nm and emission wavelength in the range of 500-550 nm. The data were analyzed the same way as described before: The result of each well was first normalized by its corresponding base microplate reading. […]
# P2X2R = P2X2R (Homo sapiens, UniProt Q9UBL9); assay: Receptor-mediated calcium entrance assay (Calcium Assay), P2X2R
# P2X7R = P2X7R (Homo sapiens, UniProt Q99572); assay: Yo-Pro-1 uptake assay (Yo-Pro-1 Assay) in HEK-293 cells transiently transfected with P2X7R; conditions: for Percentage of activity remains in the presence of the compound at 5 μM, P2X7R (Yo-Pro-1 Assay): 30 μM bzATP stimulus, reading 1 hour after stimulation, transfected HEK-293 cells; for IC50: read-out: Estimated IC50, HEK-293 cells transiently transfected with P2X7R, 30 μM bzATP as stimulus, readings 1 hour after stimulation, estimated from dose-response curves
# [2] = target: Human P2X2 receptor (P2X2R) (Homo sapiens, UniProt Q9UBL9); assay: Yo-Pro-1 uptake assay, P2X2R transfected HEK-293 cells; conditions: 5 μM ATP stimulus
# From the text: Yo-Pro-1 Iodide (Cat. No Y3603 from Fisher Scientific) is a fluorescent DNA-binding dye with a MW of 629 Da. This method is based upon the Yo-Pro-1 entrance to cells through the dilated or “large pore form” of P2X7R and its binding to intracellular DNA whereby it increases its fluorescence intensity (J. Pharmacol. Exp. Ther. 308, 1053-1061). The dye has an absorption spectrum compatible with excitation at 488 nm by argon laser sources and its emission wavelength is in the range of 515-575 nm. This Yo-Pro-1 uptake was measured in HEK-293 cells transiently transfected with P2X7R (J. Biol. Chem. 290, 7930-7942). In Brief, HEK-293 cells were seeded in growth medium at approximately 20,000 cells/well in a 96-well plate on day 1. Transfection was performed on day 2 using Lipofectamine 2000 with the P2X7R DNA plasmid at the concentration of 1.7 μg/ml. The transfection solution was replaced with the growth medium 4 hours later. Fluorescent assays were conducted on day 4. […] Fluorescence increases were measured every 30 minutes in a microplate device with excitation at 475 nm and emission wavelength in the range of 500-550 nm. […]
# Data used for analysis were from microplate readings 1 hour after bzATP stimulation. The result of each well was first normalized by its corresponding base microplate reading. The base microplate reading was the first reading right after all components were added. […]
# [3] = target: Human P2X4 receptor (P2X4R) (Homo sapiens, UniProt Q99571); assay: Receptor-mediated calcium entrance assay (Calcium Assay), P2X4R transfected HEK-293 cells; conditions: 1 mM ATP stimulus
# From the text: as §1
SMILES,"Percentage of activity remains in the presence of the compound at 5 μM, P2X1R (Calcium Assay) [1] [%]","Percentage of activity remains in the presence of the compound at 5 μM, P2X2R (Calcium Assay) (P2X2R) [%]","Percentage of activity remains in the presence of the compound at 5 μM, P2X7R (Yo-Pro-1 Assay) (P2X7R) [%]",IC50 (P2X7R) [µM],"Percentage of activity remains in the presence of the compound at 5 μM, P2X2R (Yo-Pro-1 Assay) [2] [%]","Percentage of activity remains in the presence of the compound at 5 μM, P2X4R (Calcium Assay) [3] [%]"
"O=C(NCCc1ccccc1)C1CCCN(S(=O)(=O)c2ccc(N3CCCCC3)cc2)C1 (single isomer, unassigned) [#19]",54.4,97.0,−11.2,0.4,50.3,75.1
"O=C(NCCc1ccccc1)C1CCCN(S(=O)(=O)c2ccc(N3CCCCC3)cc2)C1 (single isomer, unassigned) [#26]",60.5,103.2,0.3,3,68.5,67.3
